Source: patent publication US20080219936A1, “Skin depigmenting compositions comprising adapalene, at least one depigmenting agent and at least one anti-inflammatory agent” (GALDERMA RESEARCH AND DEVELOPMENT, priority 2005, published 2008)
At least one structure is not confirmed: it was looked up by name or label, or the drawing left a doubt.

Key:
[1] = tested on: tail of a mouse; assay: Depigmentation of the tail of a mouse not irradiated with UV-B radiation, six weeks; format: in vivo
[2] = tested on: tail of a mouse; assay: Inhibition of the induction of pigmentation by UV-B radiation in irradiated and treated mice; format: in vivo; conditions: dose of 0.03%
Description: Retinoic acid (tretinoin) is known to itself have a skin depigmenting activity (Guevara I. A. and Pandya A. G., Int. J. Dermatol., 40, 210-215 (2001)). […] Tretinoin is therefore a depigmenting agent in and of itself.

CC1=C(/C=C/C(C)=C/C=C/C(C)=C/C(=O)O)C(C)(C)CCC1 [tretinoin, Retinoic acid] was tested, and the onset of depigmentation ([1]; 0.01% or 0.03%) was “begins from the first week of treatment”, the “depigmentation reached at 6 weeks” value ([1]; 0.01% or 0.03%, 6 weeks) was “clear depigmentation” and the “depigmentation of the tail” value ([1]; concentrations of 0.01% or 0.03%, six weeks) was “induces depigmentation of the tail”. For the same molecule, the “inhibition of the induction of pigmentation by UV-B radiation” value [2] was “capable of inhibiting the induction of pigmentation by UV-B radiation”.
